This passage reports cell number change and AC50 results from PubChem BioAssay AID2685 (National Center for Advancing Translational Sciences (NCATS), 2010).

The other results are listed elsewhere or left out. The main result of the screen is listed elsewhere. These columns were measured beside it and carry no call. Compounds called inactive in the main read-out are mostly missing here. Potencies come from curve fits of mixed quality, noted in brackets.

The assay can be described thus: qHTS Assay for Lipid Storage Modulators in Drosophila S3 Cells.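 For cell number change: cells counted by Cell Tracker Red CMTPX staining in the red channel.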 The settings on record: BODIPY lipid droplet fluorescence, 18-24 h; for cell number change: measured here: cell count max response, cells fed with added oleic acid. The gist of the method:
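Laser-scanning cytometry quantifies lipid droplet accumulation (500–530 nm total intensity; droplet/cell object ratio) in oleic acid-fed (400 uM added) Drosophila S3 cells treated with a concentration series. 20 uM Triacsin C defined 100% inhibition.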

Setting [1] is: measured here: cell number channel AC50, cells fed with added oleic acid.
The mark [2] stands for this setting: measured here: lipid fluorescence (Fed channel) AC50, cells fed with added oleic acid.

What is called AC50 is the midpoint of the concentration-response curve, whichever way the signal moves. A higher AC50 goes with activity only at high concentration. For the compound `Cc1ccc(CN2CCN(C(=O)c3cccc4ccccc34)CC2)cc1`, the cell number change turned out to be 31.9%. For the same compound, the AC50 under setting [1] was 0.146 µM [rising, full curve, poor fit].

For `COc1cc([C@@H]2[C@H]3CN(C)CC=C3C(C#N)=C(N)C2(C#N)C#N)cc2c1OCO2`, the AC50 under setting [1] is 6.51 µM [rising, single point].

For `CCn1c(-c2ccccc2SC)n[nH]c1=S`, the cell number change is -16.4%.

Turning to `O=C(O)CCCC(=O)NCCc1cccc(Cl)c1`, the cell number change was -25.7%. For the same compound, the AC50 under setting [2] was 0.651 µM [falling, full curve].

Regarding `Cc1cc(=O)[nH]c(N/N=C/c2cccs2)n1`, the cell number change is -21.2%. For the same compound, the AC50 under setting [2] is 25.9 µM [falling, single point].

On to `CCN(C(=O)COC(=O)c1ccc(=O)n(Cc2ccccc2)n1)C1CCS(=O)(=O)C1` (centres undefined), for which the cell number change is -6.51%. Besides, under setting [2], the AC50 was 0.461 µM [falling, single point].

`Cc1cc(C)cc(C(=O)NCc2ccc3c(c2)OCO3)c1`: the cell number change is -5.77%. Moreover, the AC50 under setting [2] is 25.9 µM [rising, single point].

As for `Cc1c(Cc2ccccc2)c(=O)oc2c(C)c(OCC(=O)N[C@@H](Cc3ccccc3)C(=O)O)ccc12`, the cell number change amounted to 15.5%. For the same compound, the AC50 under setting [2] was 23.1 µM [rising, single point].

On to `Cc1ccc(Nc2cc(C)nn2-c2nc(C)cc(=O)[nH]2)cc1`, for which the cell number change was -24.1%. The AC50 under setting [1] is 5.8 µM [falling, partial curve, poor fit]. For the same compound, the AC50 under setting [2] was 5.17 µM [falling, full curve, poor fit].

As to `Nc1cc(C2CCCC2)nn1-c1ccccc1`, the cell number change is -13%. The AC50 under setting [2] is 6.51 µM [rising, single point].

`CCOc1ccc(NC(=O)C/C(C)=N/NC(=O)c2cnccn2)cc1`: the cell number change was 21.5%. In addition, the AC50 under setting [2] is 29.1 µM [rising, single point].

As to `Cc1ccc(-n2ccc(=O)c(C(=O)Nc3ccc(S(=O)(=O)Nc4nccs4)cc3)n2)cc1`, the cell number change was found to be 13.5%. The AC50 under setting [2] was 6.51 µM [rising, single point].

For `O=C(Nc1ccccc1)C1CCN(C(=O)c2ccccc2)CC1`, the cell number change came to 5.94%.

For `CCC(c1nnc(SCC(=O)NC23CC4CC(CC(C4)C2)C3)o1)N(C)C` (centres undefined), the cell number change is -28.1%. Further, the AC50 under setting [2] was 23.1 µM [falling, single point].

Take `Cc1ccccc1N(C(=O)c1csnn1)C(C(=O)NC1CCCCC1)c1ccncc1` (centres undefined): the cell number change came out at 11.7%.

As to `COc1cc2c(cc1NC(=O)COC(=O)[C@@H](NC(=O)c1ccccc1)C(C)C)oc1ccccc12`, the cell number change was -11.5%. Moreover, under setting [2], the concentration at half-maximal activity (AC50) was 9.2 µM [falling, single point].

With `O=C(NCCN1CCN(c2ccccc2)CC1)c1ccc2c(c1)[nH]c(=S)n1c3ccccc3nc21`, the cell number change was -33.4%. Further, the AC50 under setting [1] is 29.1 µM [falling, single point]. Besides, under setting [2], the AC50 was 29.1 µM [falling, single point].

Take `CCOC(=O)CN1CCS(=O)(=O)CC1`: the cell number change is -34.5%. Also, under setting [1], the AC50 is 7.08 µM [falling, full curve, poor fit]. The AC50 under setting [2] is 5.01 µM [falling, partial curve].

Take `Cc1ccccc1OCC(=O)O/N=C(\N)Cc1ccc(Cl)cc1`: the cell number change turned out to be 67.8%. Also, under setting [1], the AC50 is 10.3 µM [rising, partial curve].

As to `Cc1ccc(C(=O)CCNc2cccc(Br)c2)o1`, the cell number change is -18.1%.

As to `COC(=O)/C=C(\C)N=Nc1c(O)[nH]c2ccccc12`, the cell number change is -42.8%. Besides, under setting [1], the AC50 is 14.6 µM [falling, partial curve]. Moreover, the AC50 under setting [2] was 16.4 µM [falling, partial curve].

For `CCn1c(-c2cc(-c3ccccc3OC)nc3ccccc23)n[nH]c1=S`, the cell number change was 39%. Further, under setting [1], the AC50 was 7.31 µM [rising, partial curve]. Besides, under setting [2], the AC50 was 8.2 µM [rising, partial curve].

On to `Cc1onc(-c2ccccc2)c1C(=O)Nc1nc2c(s1)C(=O)CC(C)(C)C2`, for which the cell number change was 77.6%. Besides, the AC50 under setting [1] was 14.6 µM [rising, partial curve]. Besides, the AC50 under setting [2] is 6.51 µM [rising, single point].

As for `C/C=C/c1ccc(OCCCNC2CCCC2)c(OC)c1`, the cell number change turned out to be 1.94%. Moreover, the AC50 under setting [2] was 29.1 µM [falling, single point].

For `COc1cccc(CNC(=O)CSC(=S)N2CCCC2)c1`, the cell number change is -20.9%. Besides, under setting [1], the AC50 is 0.731 µM [falling, full curve, poor fit].

`CCOC(=O)CCS(=O)(=O)c1nc(-c2ccccc2)cc(C(F)(F)F)n1`: the cell number change is -86.4%. Besides, the AC50 under setting [1] is 20.6 µM [falling, partial curve]. For the same compound, under setting [2], the AC50 was 29.1 µM [falling, single point].

As for `O=C(Nc1ccccc1C(=O)OCC(=O)c1c[nH]c2ccccc12)c1ccco1`, the cell number change is -14.2%.

For the compound `COc1ccc(N(C)S(=O)(=O)c2cccc(C(=O)NCc3ccc(C)cc3)c2)cc1`, the cell number change was -13.4%. Under setting [2], the AC50 was 6.51 µM [rising, single point].

Consider `Cc1ccc(CNC(=O)CN(c2ccc(C(C)C)cc2)S(=O)(=O)c2c(C)noc2C)cc1`, for which the cell number change worked out at 3.04%.

Turning to `OCCNc1cnc2ccccc2n1`, the cell number change is -15.5%. Under setting [2], the AC50 is 29.1 µM [falling, single point].

For `COc1ccc2sc(-c3ccc(SC)cc3)c(C#CC(C)(C)O)c2c1`, the cell number change was -36.9%. Moreover, the AC50 under setting [1] is 8.2 µM [falling, single point]. The AC50 under setting [2] was 0.58 µM [rising, single point].

Take `Cc1cc(NC(=O)Cc2ccccc2)c2ccccc2n1`: the cell number change was -36.6%. For the same compound, the AC50 under setting [1] was 25.9 µM [falling, single point]. For the same compound, the AC50 under setting [2] was 16.4 µM [falling, single point].

As for `CCOC(=O)Cc1csc(NC(=S)NC(=O)c2ccc(Cl)cc2)n1`, the cell number change was -5.52%.

Regarding `Cc1noc(C)c1C(=O)OCC(=O)N(C)C1(C#N)CCCCC1`, the cell number change is -14.4%. In addition, the AC50 under setting [2] is 23.1 µM [falling, single point].

Turning to `CCOC(=O)C1=C(CC)Nc2ccccc2N=C1NC(=O)c1cc(C)on1`, the cell number change stood at 7.31%. Under setting [1], the AC50 was 6.51 µM [rising, single point]. Also, the AC50 under setting [2] is 3.26 µM [falling, single point].

Consider `O=C(c1ccc(OC2CCN(C/C=C/c3ccccc3)CC2)cc1)N1CCCC1`, for which the cell number change was determined as 28.8%. Also, the AC50 under setting [2] is 0.731 µM [rising, single point].

With `COc1cccc(/C=C2\SC(=S)N(CCCC(=O)N3CCCCC3)C2=O)c1`, the cell number change was 0.215%. In addition, under setting [2], the AC50 is 32.6 µM [falling, single point].

Turning to `OCCC1CN(Cc2cc3ccccc3o2)CCN1Cc1ccc(F)cc1` (centres undefined), the cell number change worked out at 7.88%. Moreover, under setting [2], the AC50 is 20.6 µM [rising, single point].

For the compound `Cc1cc(C)cc(NC(=O)C2CC3CCC2C3)c1` (centres undefined), the cell number change worked out at 13.3%. Also, the AC50 under setting [1] is 0.00411 µM [rising, full curve, poor fit].

For the compound `COc1cccc(C(=O)c2cc3ccc(O)cc3oc2=O)c1`, the cell number change is -19.4%. Under setting [2], the AC50 was 0.366 µM [falling, full curve, poor fit].

In the case of `CCCc1nnc(SCC(=O)NC2CC2)n1C`, the cell number change was determined as 26.1%. Further, the AC50 under setting [2] is 0.206 µM [rising, single point].

For `COc1ccccc1NS(=O)(=O)c1c(C)[nH]c(C)c1C(=O)N1CCCC1`, under setting [2], the AC50 was 6.51 µM [rising, single point].

In the case of `COC(=O)/C(=C/Nc1cccc2ccccc12)[N+](=O)[O-]`, the cell number change was -16.7%. For the same compound, under setting [2], the half-maximal activity concentration (AC50) was 0.116 µM [rising, full curve].

`Cc1cccc(N2CCN(S(=O)(=O)c3ccc(S(=O)(=O)N4CCCC4)cc3)CC2)c1C`: the AC50 under setting [2] is 0.13 µM [falling, full curve, poor fit].

Turning to `COc1ccc(S(=O)(=O)N2CCOCC2)cc1C(=O)NCC(c1ccco1)N1CCCC1` (centres undefined), the cell number change is -5.44%. Moreover, the AC50 under setting [2] was 0.326 µM [rising, full curve, poor fit].

With `CN(C)c1ccc(C(c2nnnn2C(C)(C)C)N2CCc3ccccc3C2)cc1` (centres undefined), the cell number change is -0.111%. For the same compound, the AC50 under setting [2] was 3.66 µM [falling, partial curve].

For `Cc1onc(-c2ccccc2Cl)c1C(=O)N1CCC(C(N)=O)CC1`, the cell number change was found to be 5.65%. In addition, the AC50 under setting [2] was 2.59 µM [falling, single point].

Take `Cc1ccc(C)c(N2CCN(C(=O)CN(C)S(=O)(=O)c3ccc4c(c3)CCC(=O)N4)CC2)c1`: the cell number change is -10.3%. Besides, the AC50 under setting [2] is 20.6 µM [falling, partial curve, poor fit].

For the compound `COc1cc(C)c(Cl)cc1S(=O)(=O)NCc1ccco1`, the cell number change is -3.38%. Besides, the AC50 under setting [2] is 20.6 µM [falling, single point].

Regarding `O=C(NC1CCCN(c2ccc(C(F)(F)F)cn2)C1)c1cc(Cl)ccc1F` (centres undefined), the cell number change came out at 3.52%. Besides, the AC50 under setting [2] is 5.17 µM [falling, single point].

As for `COc1ccc(NC(=O)c2sc3nc(C)nc(N4CCN(c5ccccn5)CC4)c3c2C)c(OC)c1`, the cell number change is -6.27%. In addition, under setting [2], the AC50 is 6.51 µM [falling, single point].

Regarding `Cc1ccc(-c2nc(Nc3ccc(O)cc3)c3ccccc3n2)cc1`, the cell number change is -40.3%. For the same compound, the AC50 under setting [1] was 29.1 µM [falling, single point]. Further, the AC50 under setting [2] is 18.4 µM [falling, single point].

Regarding `FC(F)(F)c1ccccc1NC(=S)Nc1ccccc1`, the cell number change was -50.5%. For the same compound, the AC50 under setting [1] is 0.206 µM [falling, full curve].

For `O=C(NC1CCN(Cc2ccccc2)CC1)C1COc2ccccc2O1` (centres undefined), the cell number change is 6.71%. The AC50 under setting [2] is 29.1 µM [rising, single point].

`CC(=O)SCC(C)C(=O)NCc1ccccc1` (centres undefined): the cell number change was -13.8%. In addition, the AC50 under setting [2] was 0.259 µM [falling, full curve].

For the compound `O=c1c2cc(N3CCOCC3)ccc2[nH]c(=S)n1Cc1ccc(Cl)cc1`, the AC50 is 0.0231 µM [rising, full curve, poor fit] under setting [1] and 0.092 µM [rising, full curve] under setting [2].

Turning to `Cc1nc(/C=C\C(=O)O)c2cc(C)oc2n1`, the cell number change was -41.4%. In addition, the AC50 under setting [1] is 0.00461 µM [falling, full curve, poor fit]. Moreover, the AC50 under setting [2] is 0.00461 µM [falling, full curve, poor fit].

As for `Cc1ccc(N(C(=O)c2ccccn2)C(C(=O)NC2CCCCC2)c2ccncc2)cc1` (centres undefined), the cell number change was -23.8%.

`Cn1c(N)c(S(=O)(=O)N2CCCC2)c(=O)n(C)c1=O`: the cell number change worked out at 1.85%. Under setting [2], the AC50 was 35.5 µM [rising, single point].
